In US7829560B2, “1,4-disubstituted naphthalenes as inhibitors of P38 MAP kinase” (Arqule, Inc., priority 2004, dated 2010):
The structures given here were assigned with low confidence; some may be wrong.

Chains of the proteins cited; added tags and fusions are not shown.
UniProt Q16539, whole entry: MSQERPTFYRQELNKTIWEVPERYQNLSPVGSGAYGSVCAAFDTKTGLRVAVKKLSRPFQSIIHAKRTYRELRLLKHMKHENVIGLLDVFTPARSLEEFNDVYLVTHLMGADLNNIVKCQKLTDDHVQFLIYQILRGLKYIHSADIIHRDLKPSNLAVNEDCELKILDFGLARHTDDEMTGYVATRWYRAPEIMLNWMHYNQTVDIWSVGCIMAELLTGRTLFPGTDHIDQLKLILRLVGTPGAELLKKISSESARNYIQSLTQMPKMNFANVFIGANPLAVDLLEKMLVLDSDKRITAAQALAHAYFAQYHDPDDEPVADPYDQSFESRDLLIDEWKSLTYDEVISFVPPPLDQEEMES

Key:
[1] = test system: TNFα release from THP-1 cells; assay: Inhibition of TNFα release from LPS-stimulated THP-1 cells, ELISA; details: read-out: [CELL] THP-1, IC50, TNF ALPHA, ELISA
[2] = target: p38α (Homo sapiens, UniProt Q16539); assay: p38 MAP Kinase assay: inhibition of ATF2 phosphorylation, ELISA; type: biochemical

Compound | IC50 [1] [nM] | [ENZ] P38 ALPHA, PCT INH, ELISA (10 uM;ATF2) (Percent) ([2]; 10 uM, substrate ATF2) [%] | IC50 ([2]; read-out: [ENZ] P38 ALPHA, IC50, ELISA, ATF2 phosphorylation) [nM]
O=C(Nc1ccc(Oc2ccnc(NC[C@@H]3CCCO3)n2)c2ccccc12)c1cc(F)cc(N2CCCCC2)c1 | 11 |  | 
Cc1cc(F)ccc1-c1cccc(C(=O)Nc2ccc(OCCN3CCOCC3)c3ccccc23)c1 [Compound B245] | 3650 | 83 | 488
